Reference: patent US20210253715A1 (NATIONAL RESEARCH COUNCIL OF CANADA, published 2021)
No constants are given. Whether binding was seen depends on the method and setting. Some binding calls cover weakened binding; strength is not graded here.

Sequences of proteins named here, by UniProt entry; tags and fusion partners are left off. Residues count along the entry.
UniProt P08069, residues 31-932: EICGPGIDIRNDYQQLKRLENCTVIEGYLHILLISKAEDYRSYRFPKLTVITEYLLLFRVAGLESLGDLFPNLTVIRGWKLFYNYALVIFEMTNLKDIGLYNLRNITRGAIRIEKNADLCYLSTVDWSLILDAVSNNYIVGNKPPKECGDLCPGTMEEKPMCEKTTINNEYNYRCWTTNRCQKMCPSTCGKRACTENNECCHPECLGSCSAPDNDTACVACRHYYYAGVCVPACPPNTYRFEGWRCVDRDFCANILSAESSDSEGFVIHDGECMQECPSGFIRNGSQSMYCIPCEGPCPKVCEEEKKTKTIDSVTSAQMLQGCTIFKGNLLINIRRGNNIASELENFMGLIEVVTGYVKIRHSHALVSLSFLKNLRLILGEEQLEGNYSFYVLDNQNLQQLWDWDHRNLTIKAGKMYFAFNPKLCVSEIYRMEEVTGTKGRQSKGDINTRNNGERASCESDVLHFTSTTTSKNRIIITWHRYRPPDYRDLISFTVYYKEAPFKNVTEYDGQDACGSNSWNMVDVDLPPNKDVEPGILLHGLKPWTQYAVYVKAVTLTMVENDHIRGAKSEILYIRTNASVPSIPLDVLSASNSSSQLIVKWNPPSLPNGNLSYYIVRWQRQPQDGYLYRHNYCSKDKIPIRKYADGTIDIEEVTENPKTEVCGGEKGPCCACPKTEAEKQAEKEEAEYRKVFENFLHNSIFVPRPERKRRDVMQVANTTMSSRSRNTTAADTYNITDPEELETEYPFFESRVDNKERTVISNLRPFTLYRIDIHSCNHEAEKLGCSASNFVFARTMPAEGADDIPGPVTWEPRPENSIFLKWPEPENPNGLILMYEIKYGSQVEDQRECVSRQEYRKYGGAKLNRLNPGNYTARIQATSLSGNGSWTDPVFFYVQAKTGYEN

Experiments:
human IGF1R [1] = target: T1, human IGF1R (human, UniProt P08069 31-932, limits assumed); assay: SPR
T1 construct: also called hIGF1R; h-IGF1R

human IGF1R [2] = target: T1, human IGF1R; assay: SPR, hIGF1R immobilised on CM4 chip

B1: IGF1R3H5-IDS (capped) (other)
chain: EVQLVESGGGLVQPGGSLRLSCAASEYPSNFYAMSWFRQAPGKEREFVSGVSRDGLTTLYADSVKGRFTISRDNSKNTLYLQMNSLRAEDTAVYYCAIVITGVWNKVDVNSRSYHYWGQGTLVTVSSGGGGSGGGGSGGGGSGGGGSGGGGSSETQANSTTDALNVLLIIVDDLRPSLGCYGDKLVRSPNIDQLASHSLLFQNAFAQQAVCAPSRVSFLTGRRPDTTRLYDFNSYWRVHAGNFSTIPQYFKENGYVTMSVGKVFHPGISSNHTDDSPYSWSFPPYHPSSEKYENTKTCRGPDGELHANLLCPVDVLDVPEGTLPDKQSTEQAIQLLEKMKTSASPFFLAVGYHKPHIPFRYPKEFQKLYPLENITLAPDPEVPDGLPPVAYNPWMDIRQREDVQALNISVPYGPIPVDFQRKIRQSYFASVSYLDTQVGRLLSALDDLQLANSTIIAFTSDHGWALGEHGEWAKYSNFDVATHVPLIFYVPGRTASLPEAGEKLFPYLDPFDSASQLMEPGRQSMDLVELVSLFPTLAGLAGLQVPPRCPVPSFHVELCREGKNLLKHFRFRDLEEDPYLPGNPRELIAYSQYPRPSDIPQWNSDKPSLKDIKIMGYSIRTIDYRYTVWVGFNPDEFLANFSDIHAGELYFVDSDPLQDHNMYNDSQGGDLFQLLMPHHHHHHHHWSHPQFEK
modifications: phosphorylated N-glycans; Man-6-P still capped (no uncapping)
notes: also called capped IGF1R3H5-IDS
- binding (human IGF1R [1]): binds
- binding (human IGF1R [2]): binds
